The other results are listed elsewhere or left out. Shown are side measurements of this screen, not its main read-out; they come without a call. Most of these compounds were active or inconclusive in the main read-out, so they are no random draw. Potencies come from curve fits of mixed quality, noted in brackets.
Experiment: qHTS Assay for Lipid Storage Modulators in Drosophila S3 Cells;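 on cell number change: cells counted by Cell Tracker Red CMTPX staining in the red channel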
Conditions: BODIPY lipid droplet fluorescence, 18-24 h; for cell number change: measured here: cell count max response, cells fed with added oleic acid
Method in brief: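 Laser-scanning cytometry quantifies lipid droplet accumulation (500–530 nm total intensity; droplet/cell object ratio) in oleic acid-fed (400 uM added) Drosophila S3 cells treated with a concentration series. 20 uM Triacsin C defined 100% inhibition.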

[1] = measured here: cell number channel AC50, cells fed with added oleic acid
[2] = measured here: lipid fluorescence (Fed channel) AC50, cells fed with added oleic acid

SMILES	cell number change [%]	AC50 [1]	AC50 [2]
O=S(=O)(Nc1ccc(N=Nc2ccc(O)c3ccccc23)cc1)c1ccccc1	-38.6	23.1 µM [falling, single point]	18.4 µM [falling, partial curve]
Cc1ccnc(NC(=O)CCC(=O)N(CC(=O)NC2CCCCC2)CC2CCCO2)c1 (configuration not stated)	70.2	6.51 µM [rising, partial curve]	8.2 µM [rising, partial curve]
O=C(COc1cccc2ccccc12)N/N=C/c1ccncc1	11.4		
CCCc1cc(=O)oc2c3c(cc(OCC(=O)NCc4ccccn4)c12)OC(C)(C)CC3	-2.91		9.2 µM [falling, partial curve, poor fit]
Cc1ccc(S(=O)(=O)Nc2cc(=O)[nH]c3c2CCC3)cc1	24.2		
Cc1c(NC(=S)N/N=C\c2ccccc2O)c(=O)n(-c2ccccc2)n1C	20	0.0291 µM [rising, full curve, poor fit]	
C=CCn1c(COc2ccc(Cl)cc2)nnc1SCC(=O)N1CC(=O)Nc2ccccc21	24.6	0.291 µM [rising, partial curve, poor fit]	29.1 µM [rising, partial curve, poor fit]
Cc1ccc(C)c(S(=O)(=O)N2CCN(C(=O)CCCc3c[nH]c4ccccc34)CC2)c1	-55.8	20.6 µM [falling, partial curve, poor fit]	5.17 µM [falling, single point]
Cn1[nH]c(CSc2ccc(Cl)cc2)cc1=O	-32.6		
O=[N+]([O-])c1cc(C(F)(F)F)ccc1NCCCCNS(=O)(=O)c1ccc2ccccc2c1	-25.2		0.184 µM [falling, full curve]
CCOc1cc(C(C(=O)NCC2CCCO2)N(C(=O)Cn2nnc3ccccc32)c2ccc(C(C)=O)cc2)ccc1O (configuration not stated)	-13.5	0.116 µM [falling, full curve, poor fit]	
Cc1noc(C)c1S(=O)(=O)N1CCC(C(=O)NCCC2=CCCCC2)CC1	-15.3	2.31 µM [falling, partial curve]	18.4 µM [falling, partial curve]
C[C@H]1CCC(=O)N(CCSc2ccc(Br)cc2)CC1	-7.55		4.61 µM [falling, single point]
Cc1ccc(S(=O)(=O)N(Cc2cccc(Cl)c2)C(=O)N2CCN(C)CC2)cc1	11.9	0.082 µM [falling, full curve]	0.13 µM [falling, full curve]
NC(=O)COc1c(-c2ccc(Br)o2)oc2ccccc2c1=O	-16.5		16.4 µM [falling, partial curve, poor fit]
CC(c1ccco1)N(C(=O)c1ccccc1NS(=O)(=O)c1cc([N+](=O)[O-])ccc1Cl)c1ccccn1 (configuration not stated)	11.1		
COc1ccccc1NS(=O)(=O)c1cc(-c2cnc(C3CC3)o2)ccc1C	-19.2		0.82 µM [falling, full curve]
Cn1cnnc1SCC(=O)c1ccc2c(c1)CCCC2	-4.37		0.0731 µM [rising, full curve, poor fit]
CC(OC(=O)c1ccco1)C(=O)NCc1ccc2c(c1)OCO2 (configuration not stated)	-5.13		0.731 µM [rising, single point]

SMILES	cell number change [%]	AC50 [1]	AC50 [2]
COc1cccc2c1-c1c(O)cccc1C2=O	19.9		
COc1cc(/C=N/NC(=O)c2nonc2N)cc(OC)c1OC	15.4	1.84 µM [falling, partial curve, poor fit]	
Cc1cc(-n2c(SCC(=O)Nc3ccc(F)c(F)c3)nc3n[nH]c(C)c3c2=N)ccc1Cl	-14.3		29.1 µM [falling, single point]
C[C@]1(OC(=O)/C=C/c2ccccc2)C[C@@H](O)[C@]2(O)C=CO[C@@H](O[C@@H]3O[C@H](CO)[C@@H](O)[C@H](O)[C@H]3O)[C@@H]21	-6.67		2.91 µM [falling, partial curve, poor fit]
COc1ccc(C(=O)OCC(=O)c2ccc[nH]2)cc1	6.37	6.51 µM [falling, single point]	6.51 µM [falling, single point]
O=C(COc1ccc(S(=O)(=O)N2CCCCC2)cc1)NCc1ccncc1	0.676		16.4 µM [rising, single point]
O=C(Nc1ccc(-c2n[nH]c(=S)o2)cc1)c1ccccc1	45.8		
COc1ccc(-c2nc(-c3cccc(C(F)(F)F)c3)no2)cc1OC	68.2	16.4 µM [rising, partial curve]	23.1 µM [rising, single point]
Cc1ccc(S(=O)(=O)NCCC(=O)N2CCCCCCC2)cc1C		2.06 µM [falling, partial curve]	1.3 µM [falling, full curve]
Clc1ccc(-c2nnsc2SCc2ccccc2)cc1	47.8	29.1 µM [rising, single point]	
Cc1ccccc1NC(=O)Cn1c(O)c(N=NC(=O)c2ccccc2O)c2ccccc21	-0.576		
Cc1ccc(-n2nc(C)c3c2NC2=C(C(=O)CC(C)(C)C2)C3c2ccccc2OCC(=O)O)cc1 (configuration not stated)			0.0326 µM [rising, full curve, poor fit]
Cc1nc2sccn2c(=O)c1S(=O)(=O)NCCc1ccccc1	-3.46		
Cc1sc(NC(=O)c2ccco2)nc1-c1ccccc1		0.58 µM [rising, partial curve, poor fit]	1.64 µM [rising, partial curve]
O=P(OCC1CC1)(c1ccccc1)c1ccccc1	10.3		0.517 µM [falling, single point]
O=[N+]([O-])c1cc(C(F)(F)F)cc([N+](=O)[O-])c1NN=C1CCCCC1	-40.7	29.1 µM [falling, single point]	20.6 µM [falling, single point]
O=C(/C=C/c1ccccc1[N+](=O)[O-])N1CCN(c2ccccc2F)CC1	-6.69		0.326 µM [falling, full curve]
CCC(CO)N=C1CC(C)(C)CC(=O)/C1=C(/O)CCCN1C(=O)c2ccccc2C1=O (configuration not stated)	73.7	29.1 µM [rising, single point]	29.1 µM [rising, partial curve]
O=C(NCc1ccco1)/C(=C\c1cccs1)NC(=O)c1cccs1	39.5	8.2 µM [rising, partial curve]	1.84 µM [rising, partial curve, poor fit]

SMILES	cell number change [%]	AC50 [1]	AC50 [2]
CCn1c(SCC(=O)N(C)CC(=O)Nc2cccc(OC)c2)nnc1-c1ccco1	11.5		
C=CCn1c(CSCc2ccc(Cl)cc2Cl)nnc1SCC(=O)Nc1ccc(C(=O)O)cc1	-19.1	3.66 µM [falling, single point]	
COC(=O)Nc1ccc(S(=O)(=O)N2CCCC(C(=O)N3CCCCC3)C2)cc1 (configuration not stated)	12		
Cc1c(N=Cc2cccs2)c(=O)n(-c2ccccc2)n1C	-13.4		
COc1ccc(CNC(=O)CCS(=O)(=O)c2ccc3c(c2)oc(=O)n3C)cc1	-0.885		
Cc1ccc(S(=O)(=O)N(CC(=O)Nc2cccnc2)c2ccccc2C)cc1	-20		0.206 µM [falling, single point]
COc1ccccc1CNC(=O)CCN1C(=O)COc2ccc(C)cc21	48.4	29.1 µM [rising, single point]	29.1 µM [rising, single point]
O=C(NC1CC(=O)N(c2ccc(F)cc2)C1)C(=O)c1c[nH]c2ccccc12 (configuration not stated)	35.2	9.2 µM [rising, partial curve, poor fit]	32.6 µM [rising, single point]
CCOC(=O)C1C(c2ccc(O)c(OCC)c2)NC(=S)NC1(O)C(F)(F)F (configuration not stated)			2.31 µM [rising, full curve]
Cc1ccc(CNC(=O)C2CC(c3ccc(C(F)(F)F)cc3)=NO2)o1 (configuration not stated)	-4.58		0.146 µM [falling, full curve, poor fit]
CN1CCN(S(=O)(=O)c2ccc(-c3ccc(Cl)cc3)cc2)CC1	-19.8		
COc1cc(OC)cc(C(=O)NCC(=O)OCC(=O)/C=C2/N(C)c3ccccc3C2(C)C)c1	-60	29.1 µM [falling, single point]	29.1 µM [falling, partial curve, poor fit]
Cc1ccc2nc(-c3ccc(NS(=O)(=O)c4ccc(F)cc4)cc3)sc2c1	-64.7	29.1 µM [falling, single point]	29.1 µM [falling, partial curve, poor fit]
CCOc1cccc2c1OC1(C)CC2NC(=O)N1c1ccc(OC)cc1 (configuration not stated)	-112	23.1 µM [falling, partial curve]	20.6 µM [falling, partial curve]
O=C1[C@H]2[C@@H](c3ccc(Cl)cc3)N3C(=O)N(c4cccc(F)c4)C(=O)[C@@]3(Cc3ccccc3)[C@H]2C(=O)N1C1CCCCC1	1.06		3.66 µM [rising, single point]
CNC(=S)Nc1ccc(Br)cc1	-11.8		0.651 µM [falling, full curve, poor fit]
Cn1nc(C(F)(F)F)c(-c2cccc(C(F)(F)F)c2)c1NC(=O)c1cccnc1	-19.3		
CC(=O)Nc1cc(C(=O)OCC(=O)c2ccccc2)ccc1C	20.8		0.164 µM [rising, partial curve, poor fit]

Rewritten as comma-separated lines: part of the list above.
SMILES,cell number change [%],AC50 [1],AC50 [2]
O=C(NCc1ccco1)/C(=C\c1cccs1)NC(=O)c1cccs1,39.5,"8.2 µM [rising, partial curve]","1.84 µM [rising, partial curve, poor fit]"
C=CCn1c(CSCc2ccc(Cl)cc2Cl)nnc1SCC(=O)Nc1ccc(C(=O)O)cc1,-19.1,"3.66 µM [falling, single point]",
COC(=O)Nc1ccc(S(=O)(=O)N2CCCC(C(=O)N3CCCCC3)C2)cc1 (configuration not stated),12,,
COc1ccc(CNC(=O)CCS(=O)(=O)c2ccc3c(c2)oc(=O)n3C)cc1,-0.885,,
Cc1ccc(S(=O)(=O)N(CC(=O)Nc2cccnc2)c2ccccc2C)cc1,-20,,"0.206 µM [falling, single point]"
COc1ccccc1CNC(=O)CCN1C(=O)COc2ccc(C)cc21,48.4,"29.1 µM [rising, single point]","29.1 µM [rising, single point]"
O=C(NC1CC(=O)N(c2ccc(F)cc2)C1)C(=O)c1c[nH]c2ccccc12 (configuration not stated),35.2,"9.2 µM [rising, partial curve, poor fit]","32.6 µM [rising, single point]"
CCOC(=O)C1C(c2ccc(O)c(OCC)c2)NC(=S)NC1(O)C(F)(F)F (configuration not stated),,,"2.31 µM [rising, full curve]"
Cc1ccc(CNC(=O)C2CC(c3ccc(C(F)(F)F)cc3)=NO2)o1 (configuration not stated),-4.58,,"0.146 µM [falling, full curve, poor fit]"
CN1CCN(S(=O)(=O)c2ccc(-c3ccc(Cl)cc3)cc2)CC1,-19.8,,
COc1cc(OC)cc(C(=O)NCC(=O)OCC(=O)/C=C2/N(C)c3ccccc3C2(C)C)c1,-60,"29.1 µM [falling, single point]","29.1 µM [falling, partial curve, poor fit]"
Cc1ccc2nc(-c3ccc(NS(=O)(=O)c4ccc(F)cc4)cc3)sc2c1,-64.7,"29.1 µM [falling, single point]","29.1 µM [falling, partial curve, poor fit]"
CCOc1cccc2c1OC1(C)CC2NC(=O)N1c1ccc(OC)cc1 (configuration not stated),-112,"23.1 µM [falling, partial curve]","20.6 µM [falling, partial curve]"
O=C1[C@H]2[C@@H](c3ccc(Cl)cc3)N3C(=O)N(c4cccc(F)c4)C(=O)[C@@]3(Cc3ccccc3)[C@H]2C(=O)N1C1CCCCC1,1.06,,"3.66 µM [rising, single point]"
CNC(=S)Nc1ccc(Br)cc1,-11.8,,"0.651 µM [falling, full curve, poor fit]"
Cn1nc(C(F)(F)F)c(-c2cccc(C(F)(F)F)c2)c1NC(=O)c1cccnc1,-19.3,,
CC(=O)Nc1cc(C(=O)OCC(=O)c2ccccc2)ccc1C,20.8,,"0.164 µM [rising, partial curve, poor fit]"

Source: PubChem BioAssay AID2685 (National Center for Advancing Translational Sciences (NCATS), 2010)
